# Assay results reported in publication PMC6307745.
# Amino acid sequences for entries named in this document (tags omitted).
# UniProt Q9JLQ0: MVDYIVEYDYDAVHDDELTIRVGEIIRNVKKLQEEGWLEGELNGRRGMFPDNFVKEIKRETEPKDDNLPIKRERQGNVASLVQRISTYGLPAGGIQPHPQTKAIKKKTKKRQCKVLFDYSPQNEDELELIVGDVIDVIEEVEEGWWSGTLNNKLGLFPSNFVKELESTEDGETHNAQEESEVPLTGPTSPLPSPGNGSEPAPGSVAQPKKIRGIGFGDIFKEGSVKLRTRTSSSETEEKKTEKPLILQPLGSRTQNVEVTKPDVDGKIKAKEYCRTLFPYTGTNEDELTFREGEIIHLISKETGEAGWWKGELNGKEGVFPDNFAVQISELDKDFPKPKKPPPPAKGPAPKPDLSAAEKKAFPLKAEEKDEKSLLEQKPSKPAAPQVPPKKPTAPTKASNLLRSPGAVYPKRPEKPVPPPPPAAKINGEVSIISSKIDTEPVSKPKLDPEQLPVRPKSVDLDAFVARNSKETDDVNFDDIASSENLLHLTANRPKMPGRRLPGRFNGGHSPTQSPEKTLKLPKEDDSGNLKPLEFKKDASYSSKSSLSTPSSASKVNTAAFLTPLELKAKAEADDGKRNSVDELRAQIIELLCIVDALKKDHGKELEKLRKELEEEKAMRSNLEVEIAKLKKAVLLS
# UniProt Q03135: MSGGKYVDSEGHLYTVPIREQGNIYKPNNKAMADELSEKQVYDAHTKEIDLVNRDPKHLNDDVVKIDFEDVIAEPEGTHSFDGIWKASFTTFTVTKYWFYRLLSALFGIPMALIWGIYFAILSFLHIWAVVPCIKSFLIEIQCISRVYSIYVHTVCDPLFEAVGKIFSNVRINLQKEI
# Results are given in words; binding and its absence hold for the method and conditions named. In cells and extracts the contact can be indirect. Some binding calls cover weakened binding; strength is not graded here.
# Tests used:
# EGFP-CD2AP (mouse) [1] = molecular target: EGFP-CD2AP (mouse) (UniProt Q9JLQ0); experiment: co-IP; transfected cells cross-linked with 0.5mM DSP for 30min at room temperature, solubilised in 1% octylglucoside, 1% TritonX-100, 50mM Tris pH8, 300mM NaCl, 5mM EDTA; anti-GFP immunoprecipitation; blot with anti-caveolin1
# EGFP-CD2AP (mouse) [2] = molecular target: EGFP-CD2AP (mouse) (UniProt Q9JLQ0); experiment: co-IP; cells co-transfected with cavin1-mCherry and an EGFP construct; lysis in 0.1% TritonX100, 10 mM Tris pH8, 150 mM NaCl, 0.5 mM EDTA; cleared at 100,000 g; GFP-Trap beads overnight at 4°C; blot with anti-cavin1
Molecule,binding (EGFP-CD2AP (mouse) [1]),binding (EGFP-CD2AP (mouse) [2])
"caveolin1 (in lysates of transfected, DSP cross-linked cells) (from UniProt Q03135 1-178)",binds,–
"cavin1-mCherry (protein, UniProt P85125 1-392) MEDVTLHIVERPYSGYPDASSEGPEPTPGEARATEEPSGTGSDELIKSDQVNGVLVLSLLDKIIGAVDQIQLTQAQLEERQAEMEGAVQSIQGELSKLGKAHATTSNTVSKLLEKVRKVSVNVKTVRGSLERQAGQIKKLEVNEAELLRRRNFKVMIYQDEVKLPAKLSVSKSLKESEALPEKEGDELGEGERPEEDAAAIELSSDEAVEVEEVIEESRAERIKRSGLRRVDDFKKAFSKEKMEKTKVRTRENLEKTRLKTKENLEKTRHTLEKRMNKLGTRLVPVERREKLKTSRDKLRKSFTPDHVVYARSKTAVYKVPPFTFHVKKIREGEVEVLKATEMVEVGPDDDEVGAERGAETDLLRGSSPDVHTLLEITEESDAVLVDKSDSD",–,binds
